This note sets out measurements from the supplement of paper PMC12819154, “High-throughput peptide-centric local stability assay extends protein–ligand identification to membrane proteins, tissues and bacteria” (Nature Structural & Molecular Biology, 2025).

Amino acid sequences for entries named in this document (tags omitted). A change or cut given only in a name is not applied to a line headed by its entry.
UniProt Q4VAA2: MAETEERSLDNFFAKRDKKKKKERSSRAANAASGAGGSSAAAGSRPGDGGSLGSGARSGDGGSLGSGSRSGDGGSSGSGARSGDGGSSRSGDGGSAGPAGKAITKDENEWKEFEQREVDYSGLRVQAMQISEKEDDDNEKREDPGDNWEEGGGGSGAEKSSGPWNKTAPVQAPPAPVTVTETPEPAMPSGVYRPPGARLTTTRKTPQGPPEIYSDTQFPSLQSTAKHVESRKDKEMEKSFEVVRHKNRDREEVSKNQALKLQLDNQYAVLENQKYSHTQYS
UniProt Q3U1J4, whole entry: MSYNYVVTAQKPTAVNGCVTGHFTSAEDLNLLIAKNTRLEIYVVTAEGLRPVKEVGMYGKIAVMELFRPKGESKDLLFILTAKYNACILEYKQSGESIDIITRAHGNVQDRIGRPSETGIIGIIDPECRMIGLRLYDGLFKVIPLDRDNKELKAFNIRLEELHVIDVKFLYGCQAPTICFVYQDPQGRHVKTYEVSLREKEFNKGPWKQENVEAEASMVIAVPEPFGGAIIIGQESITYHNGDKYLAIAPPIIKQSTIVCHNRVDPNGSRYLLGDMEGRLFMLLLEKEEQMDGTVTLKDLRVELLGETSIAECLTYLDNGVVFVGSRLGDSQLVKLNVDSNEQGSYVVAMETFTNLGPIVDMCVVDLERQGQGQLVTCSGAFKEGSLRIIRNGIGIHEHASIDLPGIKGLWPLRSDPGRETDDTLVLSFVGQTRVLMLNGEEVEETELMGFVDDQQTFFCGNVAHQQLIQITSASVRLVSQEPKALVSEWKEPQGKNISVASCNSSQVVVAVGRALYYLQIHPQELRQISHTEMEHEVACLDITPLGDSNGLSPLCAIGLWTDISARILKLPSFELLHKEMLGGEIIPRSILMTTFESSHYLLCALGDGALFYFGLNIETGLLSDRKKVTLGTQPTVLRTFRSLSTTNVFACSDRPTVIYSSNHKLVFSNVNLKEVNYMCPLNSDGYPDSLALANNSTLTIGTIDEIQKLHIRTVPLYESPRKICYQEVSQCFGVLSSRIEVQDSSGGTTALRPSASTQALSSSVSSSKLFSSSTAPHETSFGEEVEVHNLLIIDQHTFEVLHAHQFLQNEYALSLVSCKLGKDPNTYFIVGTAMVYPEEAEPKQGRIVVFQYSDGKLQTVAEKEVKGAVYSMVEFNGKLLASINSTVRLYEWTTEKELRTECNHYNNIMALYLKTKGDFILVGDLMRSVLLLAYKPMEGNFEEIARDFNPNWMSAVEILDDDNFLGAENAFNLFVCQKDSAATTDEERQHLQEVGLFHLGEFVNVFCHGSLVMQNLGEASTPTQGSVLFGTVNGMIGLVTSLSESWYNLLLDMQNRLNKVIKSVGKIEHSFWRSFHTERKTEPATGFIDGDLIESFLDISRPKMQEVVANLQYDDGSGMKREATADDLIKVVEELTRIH
UniProt Q3ULF4: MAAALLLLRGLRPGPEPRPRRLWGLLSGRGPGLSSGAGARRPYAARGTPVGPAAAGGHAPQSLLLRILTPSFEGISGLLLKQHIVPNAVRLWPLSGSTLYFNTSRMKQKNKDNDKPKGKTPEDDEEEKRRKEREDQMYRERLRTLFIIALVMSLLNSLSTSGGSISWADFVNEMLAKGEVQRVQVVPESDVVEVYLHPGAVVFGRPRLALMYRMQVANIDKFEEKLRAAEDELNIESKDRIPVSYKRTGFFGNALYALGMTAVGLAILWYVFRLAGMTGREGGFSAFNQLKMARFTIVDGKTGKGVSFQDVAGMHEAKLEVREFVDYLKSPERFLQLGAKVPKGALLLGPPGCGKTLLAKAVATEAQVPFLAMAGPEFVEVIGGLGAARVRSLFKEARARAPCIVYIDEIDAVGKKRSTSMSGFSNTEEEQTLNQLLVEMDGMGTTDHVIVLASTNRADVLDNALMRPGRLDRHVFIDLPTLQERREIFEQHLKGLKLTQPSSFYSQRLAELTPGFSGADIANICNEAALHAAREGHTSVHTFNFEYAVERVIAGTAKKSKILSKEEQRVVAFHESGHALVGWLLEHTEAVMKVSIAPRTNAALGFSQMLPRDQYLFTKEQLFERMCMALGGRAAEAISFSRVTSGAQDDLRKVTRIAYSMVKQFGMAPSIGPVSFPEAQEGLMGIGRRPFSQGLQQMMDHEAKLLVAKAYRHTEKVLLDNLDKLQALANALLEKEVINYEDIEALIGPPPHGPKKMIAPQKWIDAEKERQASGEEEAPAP
UniProt Q3TW96: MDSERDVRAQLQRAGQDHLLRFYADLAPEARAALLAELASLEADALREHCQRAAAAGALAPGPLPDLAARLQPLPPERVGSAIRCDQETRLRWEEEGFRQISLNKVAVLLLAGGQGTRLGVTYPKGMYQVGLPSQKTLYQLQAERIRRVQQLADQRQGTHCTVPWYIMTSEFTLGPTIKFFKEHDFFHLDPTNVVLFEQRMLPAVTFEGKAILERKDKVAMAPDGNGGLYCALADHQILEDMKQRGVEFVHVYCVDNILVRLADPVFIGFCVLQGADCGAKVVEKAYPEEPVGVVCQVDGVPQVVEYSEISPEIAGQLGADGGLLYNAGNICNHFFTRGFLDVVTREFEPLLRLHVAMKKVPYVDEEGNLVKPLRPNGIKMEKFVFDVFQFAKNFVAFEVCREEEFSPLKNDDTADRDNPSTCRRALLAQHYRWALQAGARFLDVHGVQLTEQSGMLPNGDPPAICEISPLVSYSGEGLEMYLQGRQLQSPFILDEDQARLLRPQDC
UniProt Q3TC93: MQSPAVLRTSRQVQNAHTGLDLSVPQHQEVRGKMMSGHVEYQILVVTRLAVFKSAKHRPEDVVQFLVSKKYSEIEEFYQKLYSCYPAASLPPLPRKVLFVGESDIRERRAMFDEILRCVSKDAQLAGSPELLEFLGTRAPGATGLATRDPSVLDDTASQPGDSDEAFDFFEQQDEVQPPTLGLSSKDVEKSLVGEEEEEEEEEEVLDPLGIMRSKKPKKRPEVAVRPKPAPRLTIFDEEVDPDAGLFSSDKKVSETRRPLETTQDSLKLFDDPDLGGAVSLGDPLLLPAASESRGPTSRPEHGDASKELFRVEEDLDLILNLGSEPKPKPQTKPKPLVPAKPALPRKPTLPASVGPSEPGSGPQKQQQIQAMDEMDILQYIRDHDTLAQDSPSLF
UniProt Q59J78: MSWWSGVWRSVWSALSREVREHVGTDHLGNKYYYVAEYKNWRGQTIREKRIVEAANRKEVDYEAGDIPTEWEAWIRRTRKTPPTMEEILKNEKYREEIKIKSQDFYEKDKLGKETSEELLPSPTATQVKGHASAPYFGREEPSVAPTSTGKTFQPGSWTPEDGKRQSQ
UniProt Q05915: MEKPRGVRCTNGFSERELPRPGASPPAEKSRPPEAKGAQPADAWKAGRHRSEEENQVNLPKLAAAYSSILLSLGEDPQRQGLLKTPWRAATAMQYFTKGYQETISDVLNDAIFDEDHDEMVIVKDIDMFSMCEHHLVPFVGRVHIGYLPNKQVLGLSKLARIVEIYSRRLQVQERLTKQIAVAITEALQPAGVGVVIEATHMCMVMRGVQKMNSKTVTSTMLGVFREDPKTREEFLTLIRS
UniProt Q08093: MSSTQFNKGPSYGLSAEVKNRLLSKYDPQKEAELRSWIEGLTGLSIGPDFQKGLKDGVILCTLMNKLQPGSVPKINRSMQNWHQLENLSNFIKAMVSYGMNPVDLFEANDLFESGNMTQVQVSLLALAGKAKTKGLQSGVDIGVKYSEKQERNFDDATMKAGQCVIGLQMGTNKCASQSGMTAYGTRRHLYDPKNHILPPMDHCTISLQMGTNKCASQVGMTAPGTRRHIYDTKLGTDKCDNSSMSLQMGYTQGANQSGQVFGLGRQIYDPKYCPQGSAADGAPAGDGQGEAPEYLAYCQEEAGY
UniProt Q3UQ44: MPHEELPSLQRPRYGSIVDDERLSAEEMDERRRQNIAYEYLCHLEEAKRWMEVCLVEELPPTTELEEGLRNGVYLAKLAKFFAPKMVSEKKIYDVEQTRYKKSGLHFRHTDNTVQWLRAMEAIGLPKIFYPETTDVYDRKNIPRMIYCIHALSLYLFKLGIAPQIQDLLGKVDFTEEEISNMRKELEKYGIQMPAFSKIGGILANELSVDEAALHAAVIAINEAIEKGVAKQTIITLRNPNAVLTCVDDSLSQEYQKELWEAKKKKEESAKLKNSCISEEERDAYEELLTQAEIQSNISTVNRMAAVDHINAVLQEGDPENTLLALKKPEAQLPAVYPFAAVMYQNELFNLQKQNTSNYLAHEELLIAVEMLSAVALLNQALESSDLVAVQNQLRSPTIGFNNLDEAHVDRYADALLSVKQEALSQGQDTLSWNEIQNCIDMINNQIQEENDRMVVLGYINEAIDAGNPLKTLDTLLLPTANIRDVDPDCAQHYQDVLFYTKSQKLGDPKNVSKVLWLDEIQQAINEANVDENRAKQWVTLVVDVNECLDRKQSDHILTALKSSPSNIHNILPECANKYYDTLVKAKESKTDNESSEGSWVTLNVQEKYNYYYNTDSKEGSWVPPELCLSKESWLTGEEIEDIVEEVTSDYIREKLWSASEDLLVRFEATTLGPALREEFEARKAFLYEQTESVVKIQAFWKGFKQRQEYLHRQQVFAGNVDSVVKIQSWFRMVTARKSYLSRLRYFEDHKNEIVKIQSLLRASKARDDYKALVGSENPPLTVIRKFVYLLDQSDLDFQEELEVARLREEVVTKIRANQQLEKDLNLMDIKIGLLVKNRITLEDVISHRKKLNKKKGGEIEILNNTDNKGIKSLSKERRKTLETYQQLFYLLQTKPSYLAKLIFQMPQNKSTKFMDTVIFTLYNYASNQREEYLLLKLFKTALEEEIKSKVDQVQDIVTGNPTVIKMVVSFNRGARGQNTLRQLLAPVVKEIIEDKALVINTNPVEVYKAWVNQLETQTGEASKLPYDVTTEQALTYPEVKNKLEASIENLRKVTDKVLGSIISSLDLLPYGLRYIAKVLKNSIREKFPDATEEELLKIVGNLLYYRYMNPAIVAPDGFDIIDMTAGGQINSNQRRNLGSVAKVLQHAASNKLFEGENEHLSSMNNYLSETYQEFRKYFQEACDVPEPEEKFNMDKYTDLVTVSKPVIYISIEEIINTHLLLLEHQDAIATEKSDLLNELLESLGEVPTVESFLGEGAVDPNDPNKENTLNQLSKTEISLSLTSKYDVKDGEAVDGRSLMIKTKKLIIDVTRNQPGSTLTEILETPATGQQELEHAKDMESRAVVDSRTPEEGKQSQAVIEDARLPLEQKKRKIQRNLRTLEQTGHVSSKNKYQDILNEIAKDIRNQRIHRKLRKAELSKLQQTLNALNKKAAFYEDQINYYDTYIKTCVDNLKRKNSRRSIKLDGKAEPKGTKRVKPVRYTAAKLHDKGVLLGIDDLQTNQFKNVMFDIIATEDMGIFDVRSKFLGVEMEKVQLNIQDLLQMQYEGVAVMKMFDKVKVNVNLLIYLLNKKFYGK
UniProt Q07076: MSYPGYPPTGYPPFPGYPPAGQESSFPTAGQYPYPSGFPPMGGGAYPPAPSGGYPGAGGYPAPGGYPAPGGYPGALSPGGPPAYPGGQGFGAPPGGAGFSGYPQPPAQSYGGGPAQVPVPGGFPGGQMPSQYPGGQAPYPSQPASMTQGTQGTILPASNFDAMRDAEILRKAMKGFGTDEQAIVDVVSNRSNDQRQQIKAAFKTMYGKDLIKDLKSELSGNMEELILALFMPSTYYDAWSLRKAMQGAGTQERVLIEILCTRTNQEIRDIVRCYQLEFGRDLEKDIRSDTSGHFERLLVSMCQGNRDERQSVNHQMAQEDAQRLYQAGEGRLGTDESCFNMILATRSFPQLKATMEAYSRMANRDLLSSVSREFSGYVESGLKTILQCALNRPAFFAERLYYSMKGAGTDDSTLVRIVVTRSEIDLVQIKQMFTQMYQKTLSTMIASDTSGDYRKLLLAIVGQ
UniProt Q4KML4: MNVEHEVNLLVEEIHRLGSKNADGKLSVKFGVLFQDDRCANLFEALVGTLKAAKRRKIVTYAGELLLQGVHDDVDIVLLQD
UniProt Q3TMH2: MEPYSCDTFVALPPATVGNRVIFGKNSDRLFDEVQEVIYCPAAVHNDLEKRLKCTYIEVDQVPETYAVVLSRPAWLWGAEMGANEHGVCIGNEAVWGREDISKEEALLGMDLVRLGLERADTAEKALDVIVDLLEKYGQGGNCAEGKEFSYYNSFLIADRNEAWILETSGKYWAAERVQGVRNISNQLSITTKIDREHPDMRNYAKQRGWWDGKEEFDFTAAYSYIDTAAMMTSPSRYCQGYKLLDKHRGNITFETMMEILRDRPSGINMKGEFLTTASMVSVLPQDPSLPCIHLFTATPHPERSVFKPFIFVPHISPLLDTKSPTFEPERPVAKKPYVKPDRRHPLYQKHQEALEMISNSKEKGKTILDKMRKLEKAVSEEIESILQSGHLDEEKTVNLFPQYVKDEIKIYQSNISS
UniProt Q3UBX0: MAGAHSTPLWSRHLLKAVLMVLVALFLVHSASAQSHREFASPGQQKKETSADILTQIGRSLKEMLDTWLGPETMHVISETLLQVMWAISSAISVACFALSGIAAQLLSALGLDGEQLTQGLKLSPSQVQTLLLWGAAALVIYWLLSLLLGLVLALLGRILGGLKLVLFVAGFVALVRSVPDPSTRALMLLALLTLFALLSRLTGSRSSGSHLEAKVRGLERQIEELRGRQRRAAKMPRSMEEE

The other results are listed elsewhere or left out. Most entries show no effect beyond the scatter of the controls.

Compound in the assay: CN[C@@H]1C[C@H]2O[C@@](C)([C@@H]1OC)n1c3ccccc3c3c4c(c5c6ccccc6n2c5c31)C(=O)NC4 [staurosporine]
The assay can be described thus: log2 fold change of pooled soluble protein (PISA), ligand vs vehicle (log2 ratio); higher = more thermally stabilized. The note with it: ligand concentration: 20 uM; assay format: PISA pool 52.9/55.5/58.6 C.
Consider UniProt Q08879, for which the “log2 fold change of pooled soluble protein” value (“log2 fold change” below) stood at 0.124.

As to UniProt Q02013, the “log2 fold change” value was determined as 0.0105.

In the case of UniProt Q4VAA2, the “log2 fold change” value is -0.11.

Regarding UniProt Q3TXU5, the “log2 fold change” value was determined as 0.391.

On to UniProt Q5I012, for which the “log2 fold change” value was -0.23.

For the target UniProt Q3UDK1, the “log2 fold change” value was -0.0495.

Take UniProt Q08288: the “log2 fold change” value is 0.00233.

Consider UniProt Q3U1F9, for which the “log2 fold change” value was -0.12.

As to UniProt Q3U1J4, the “log2 fold change” value is -0.029.

Regarding UniProt P97872, the “log2 fold change” value was -0.0766.

For the target UniProt Q3ULF4, the “log2 fold change” value turned out to be 0.0218.

For UniProt Q05512, the “log2 fold change” value came to 0.0377.

As for UniProt Q148V8, the “log2 fold change” value was -0.0513.

Regarding UniProt Q3TAS6, the “log2 fold change” value was -0.00773.

UniProt Q3TW96: the “log2 fold change” value amounted to 0.0514.

Consider UniProt Q3TC93, for which the “log2 fold change” value is -0.135.

UniProt Q3UE37: the “log2 fold change” value was determined as 0.129.

As for UniProt Q3UTJ2, the “log2 fold change” value is -0.133.

As for UniProt Q5EBG8, the “log2 fold change” value stood at 0.00861.

Consider UniProt Q3TJD7, for which the “log2 fold change” value amounted to 0.0553.

Turning to UniProt Q59J78, the “log2 fold change” value is 0.0668.

As for UniProt Q3TH73, the “log2 fold change” value was 0.0241.

As to Q3UGC7;Q66JS6, the “log2 fold change” value was -0.0512.

In the case of UniProt Q05915, the “log2 fold change” value is -0.0753.

In the case of UniProt Q08093, the “log2 fold change” value turned out to be 0.0625.

With UniProt Q3U487, the “log2 fold change” value is -0.195.

As for UniProt Q3UEG6, the “log2 fold change” value was -0.0272.

In the case of UniProt Q3UQ44, the “log2 fold change” value is -0.106.

In the case of UniProt Q07076, the “log2 fold change” value was -0.0737.

As for UniProt Q3TYS2, the “log2 fold change” value is -0.237.

On to UniProt Q08501, for which the “log2 fold change” value was -0.184.

On to UniProt Q4KML4, for which the “log2 fold change” value was 0.405.

For UniProt Q3TMH2, the “log2 fold change” value is -0.109.

Consider UniProt Q3UH68, for which the “log2 fold change” value is -0.218.

With UniProt Q3UZP4, the “log2 fold change” value is 0.275.

For UniProt Q3UBX0, the “log2 fold change” value is 0.0621.
